# Percent effect of library compounds

Sequences of proteins named here, by UniProt entry; tags and fusion partners are left off. Residues count along the entry.
UniProt Q4DA54, 1-478: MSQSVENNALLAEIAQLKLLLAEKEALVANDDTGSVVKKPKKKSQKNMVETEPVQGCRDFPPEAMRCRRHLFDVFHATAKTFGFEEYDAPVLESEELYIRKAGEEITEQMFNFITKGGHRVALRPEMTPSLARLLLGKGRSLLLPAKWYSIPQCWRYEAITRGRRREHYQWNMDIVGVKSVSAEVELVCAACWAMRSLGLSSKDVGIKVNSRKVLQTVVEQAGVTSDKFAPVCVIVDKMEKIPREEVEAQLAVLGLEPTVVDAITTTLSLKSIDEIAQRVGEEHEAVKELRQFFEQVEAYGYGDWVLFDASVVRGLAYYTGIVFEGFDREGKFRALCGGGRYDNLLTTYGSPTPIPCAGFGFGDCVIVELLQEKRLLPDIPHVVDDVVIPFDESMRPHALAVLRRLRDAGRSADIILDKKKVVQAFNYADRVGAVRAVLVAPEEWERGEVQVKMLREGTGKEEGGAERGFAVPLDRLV
UniProt P9WFT3, whole entry: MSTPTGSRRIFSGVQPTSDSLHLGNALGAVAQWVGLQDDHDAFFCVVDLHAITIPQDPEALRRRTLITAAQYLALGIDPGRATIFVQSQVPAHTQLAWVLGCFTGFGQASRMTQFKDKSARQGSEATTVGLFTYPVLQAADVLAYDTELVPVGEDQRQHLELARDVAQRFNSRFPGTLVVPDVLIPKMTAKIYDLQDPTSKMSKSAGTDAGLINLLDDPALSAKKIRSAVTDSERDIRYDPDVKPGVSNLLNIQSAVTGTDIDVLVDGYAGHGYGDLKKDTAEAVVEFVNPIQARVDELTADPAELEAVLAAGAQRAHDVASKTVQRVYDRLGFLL
UniProt I6X8D2, whole entry: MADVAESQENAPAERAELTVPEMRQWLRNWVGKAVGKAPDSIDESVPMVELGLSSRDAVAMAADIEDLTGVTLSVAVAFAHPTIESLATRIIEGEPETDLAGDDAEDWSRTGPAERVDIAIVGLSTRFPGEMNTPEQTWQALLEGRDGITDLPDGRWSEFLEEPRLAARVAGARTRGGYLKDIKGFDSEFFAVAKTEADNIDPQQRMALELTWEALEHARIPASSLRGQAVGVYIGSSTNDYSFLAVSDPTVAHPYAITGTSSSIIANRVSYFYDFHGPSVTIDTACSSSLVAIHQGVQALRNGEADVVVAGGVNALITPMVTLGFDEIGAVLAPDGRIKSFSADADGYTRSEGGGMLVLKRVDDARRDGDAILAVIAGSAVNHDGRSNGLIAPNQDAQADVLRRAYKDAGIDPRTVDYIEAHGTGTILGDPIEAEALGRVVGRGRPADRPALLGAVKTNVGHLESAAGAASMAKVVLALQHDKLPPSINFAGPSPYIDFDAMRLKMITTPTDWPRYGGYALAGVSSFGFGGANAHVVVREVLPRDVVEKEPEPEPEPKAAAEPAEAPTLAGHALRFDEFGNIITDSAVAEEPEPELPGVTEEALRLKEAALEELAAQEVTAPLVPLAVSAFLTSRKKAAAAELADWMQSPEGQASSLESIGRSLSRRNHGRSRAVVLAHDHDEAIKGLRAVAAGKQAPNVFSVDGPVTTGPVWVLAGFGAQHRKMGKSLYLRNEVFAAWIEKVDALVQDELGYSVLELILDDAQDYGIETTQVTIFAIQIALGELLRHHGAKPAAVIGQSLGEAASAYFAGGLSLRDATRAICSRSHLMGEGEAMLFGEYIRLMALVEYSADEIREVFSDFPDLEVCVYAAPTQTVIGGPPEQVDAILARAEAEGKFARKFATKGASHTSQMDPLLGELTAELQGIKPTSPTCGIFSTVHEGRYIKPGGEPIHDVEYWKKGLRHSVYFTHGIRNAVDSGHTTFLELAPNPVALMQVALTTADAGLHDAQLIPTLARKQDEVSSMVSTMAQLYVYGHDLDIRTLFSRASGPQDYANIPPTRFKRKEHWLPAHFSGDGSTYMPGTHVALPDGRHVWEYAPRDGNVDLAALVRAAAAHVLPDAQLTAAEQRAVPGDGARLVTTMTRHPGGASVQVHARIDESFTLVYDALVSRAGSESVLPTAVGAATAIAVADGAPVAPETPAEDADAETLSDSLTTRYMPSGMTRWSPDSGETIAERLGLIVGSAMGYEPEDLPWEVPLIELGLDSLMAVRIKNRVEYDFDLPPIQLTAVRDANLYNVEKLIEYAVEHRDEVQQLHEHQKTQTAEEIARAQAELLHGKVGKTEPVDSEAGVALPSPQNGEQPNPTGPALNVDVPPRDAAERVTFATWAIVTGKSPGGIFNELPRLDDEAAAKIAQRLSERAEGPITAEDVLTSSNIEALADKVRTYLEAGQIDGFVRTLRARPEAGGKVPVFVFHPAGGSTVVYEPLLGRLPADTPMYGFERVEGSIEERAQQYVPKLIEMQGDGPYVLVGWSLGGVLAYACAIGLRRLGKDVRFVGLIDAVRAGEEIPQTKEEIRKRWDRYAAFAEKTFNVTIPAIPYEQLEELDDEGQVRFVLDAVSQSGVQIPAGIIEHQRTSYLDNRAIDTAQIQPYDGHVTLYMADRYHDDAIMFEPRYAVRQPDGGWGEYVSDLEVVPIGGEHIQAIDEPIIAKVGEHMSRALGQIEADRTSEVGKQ
UniProt Q8IDJ8, 1-583: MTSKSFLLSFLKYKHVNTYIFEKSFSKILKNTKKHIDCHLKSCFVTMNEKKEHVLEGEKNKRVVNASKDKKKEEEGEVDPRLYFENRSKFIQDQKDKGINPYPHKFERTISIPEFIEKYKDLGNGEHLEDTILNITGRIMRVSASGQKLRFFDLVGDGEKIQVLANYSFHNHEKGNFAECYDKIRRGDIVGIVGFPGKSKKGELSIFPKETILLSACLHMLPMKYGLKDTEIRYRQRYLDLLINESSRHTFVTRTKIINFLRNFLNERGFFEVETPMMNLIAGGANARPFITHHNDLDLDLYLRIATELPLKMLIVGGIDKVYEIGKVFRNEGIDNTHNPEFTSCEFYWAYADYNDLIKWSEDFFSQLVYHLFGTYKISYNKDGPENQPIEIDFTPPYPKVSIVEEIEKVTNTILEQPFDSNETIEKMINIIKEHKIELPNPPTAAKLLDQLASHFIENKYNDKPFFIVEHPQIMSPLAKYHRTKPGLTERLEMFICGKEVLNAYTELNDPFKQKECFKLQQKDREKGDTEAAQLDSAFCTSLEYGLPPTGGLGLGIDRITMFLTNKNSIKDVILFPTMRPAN

Source: ChEMBL document CHEMBL3988442, “University of Dundee, Small-Polar-MMV Screening Library” (2021).

TcHisRS: 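Enzyme assay of histidyl-tRNA synthetase; the read-out is not stated. Target: Histidine-tRNA ligase, Trypanosoma cruzi CL Brener (UniProt Q4DA54). Tested at 30 µM. The record gives no direction; compounds that gave an IC50 in retests scored well above the rest, so higher reads as stronger inhibition. Size under these conditions: about 69,000 compounds, about 31 of them at 50% or above in at least one test.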
MtTrpRS: 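Tryptophan-tRNA ligase, Mycobacterium tuberculosis (UniProt P9WFT3). Enzyme assay of tryptophanyl-tRNA synthetase; the read-out is not stated. Compounds at 10 µM. Direction is not recorded; retested compounds ran higher, which suggests that high means inhibition. Of about 65,000 compounds tested this way, about 64 (0.098%) reached 50% or more in at least one test.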
Pks13 thioesterase: 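Enzyme assay of the thioesterase domain of polyketide synthase 13; the read-out is not stated. Target: Polyketide synthase Pks13, Mycobacterium tuberculosis (UniProt I6X8D2). Tested at 30 µM. Higher reads as stronger inhibition (inferred from which compounds were picked for retests). About 67,000 compounds were tested under these conditions; 0.46% (about 300) showed 50% or more at least once.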
PfKRS1: 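Enzyme assay of the cytosolic lysyl-tRNA synthetase in 384-well plates, read by luminescence. Target: Lysine-tRNA ligase, Plasmodium falciparum 3D7 (UniProt Q8IDJ8). Tested at 30 µM. Direction is inferred from only a few compounds that gave an IC50; most scored high, so higher reads as stronger inhibition. Of about 69,000 compounds tested this way, about 49 (0.071%) reached 50% or more in at least one test.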
Toxoplasma: 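Assay of Toxoplasma gondii numbers, read through their beta-galactosidase reporter with a colour substrate. Compounds at 10 µM. The record gives no direction; the compounds picked for IC50 retests had high values, so higher reads as fewer parasites. Size under these conditions: about 67,000 compounds, about 260 of them at 50% or above in at least one test.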

Values are the deposited “Percent Effect”, in %. The record does not define 0% and 100%; most values in the screen are far below 50% and negative numbers occur (in some assays of this library far below -100). This is an unselected part of the compounds tested. A dash means the value is not listed here; it may have been measured.

structure | TcHisRS | MtTrpRS | Pks13 thioesterase | PfKRS1 | Toxoplasma
O=C(O)C(F)(F)F.O=C(O)C(F)(F)F.[H][C@@]12C[C@@H](OCc3ccccc3)CN1CCN(C(=O)c1cccnc1)C2 | - | - | - | - | -17.06
CCn1cnnc1CNC(=O)c1cc(Cl)ccc1O | 5.639 | -2.242 | 6.284 | -0.4597 | -8.38
Cc1cc(CNC(=O)CCN2CCN(c3ccccn3)CC2)c(C)o1 | 5.051 | 0.9372 | -15.63 | 5.029 | 0.767
COCC1CC2(CCN(C(=O)c3ccccc3C)CC2)CN1C(C)C.O=C(O)C(F)(F)F (configuration not stated) | - | - | - | - | 23.71
COc1cccc(Cl)c1C(C(=O)O)N(C)Cc1c(C)n[nH]c1C (configuration not stated) | 9.195 | 0.4968 | -9.057 | 1.715 | -
O=C(CCCOCc1ccccc1)N1CCCC1c1ccccn1 (configuration not stated) | 2.256 | -0.3934 | -38.12 | 7.478 | -
Cc1nnc2n1CCN(C(=O)c1cc3cc(F)ccc3[nH]1)C2 | 4.023 | 0.5842 | -0.3381 | 1.273 | -17.04
CC(C)(CO)NCc1nn(Cc2ccccc2)nc1-c1ccccc1 | 4.348 | 0.3886 | -3.855 | -1.52 | 6.936
Cc1noc(C2CCN(Cn3cc(Cl)cn3)CC2)n1 | 1.786 | -0.1361 | -17.05 | 6.897 | 10.41
Cc1ccc(CN2CCc3c(C(=O)N(C)C)n[nH]c3C2)o1 | 10.68 | -1.051 | -50.38 | 2.639 | -15.33
CCC(C(=O)NCCc1ccn(-c2ccccc2)n1)N1CCCC1=O (configuration not stated) | -1.053 | -4.298 | -15.66 | 0.8791 | 2.347
CN(C)CC(=O)N1CCC2(CC1)COC(COc1ccccn1)C2.O=C(O)C(F)(F)F.O=C(O)C(F)(F)F (configuration not stated) | - | - | - | - | -3.18
O=C(O)C(F)(F)F.O=C(O)C(F)(F)F.O=C(O)C(F)(F)F.[H][C@]12CCN(Cc3ccccn3)[C@@]1([H])CC[C@H](COCCN1CCCC1)O2 | - | - | - | - | -4.568
[H][C@@]12CS(=O)(=O)C[C@]1([H])N(Cc1cccnc1)CCN2C(=O)C1CCC1 | - | - | - | - | 5.967
Cc1nc(Nc2nnc(C)s2)cc(C2CCCN2S(C)(=O)=O)n1 (configuration not stated) | 1.498 | - | -12.5 | 0.677 | -1.25
COc1cccc(-c2n[nH]cc2CNC2CCN(C3CC3)CC2)c1.Cl | - | - | - | - | 6.334
O=C(O)C(F)(F)F.O=C(O)C(F)(F)F.[H][C@@]12COC[C@]1(COCC1CC1)CN(Cc1ccncc1)C2 | - | - | - | - | -1.674
c1ncc(-c2ccc(C3CNCCO3)nc2)cn1 (configuration not stated) | -2.198 | - | -3.901 | 1.805 | -
CC(C)c1nnc2n1CCN(C(=O)c1ccc3cc[nH]c3c1)C2 | 3.396 | 1.774 | -6.972 | 1.28 | -3.151
CC(=O)NCCC1CCCCN1S(=O)(=O)c1cccc(Cl)c1 (configuration not stated) | 3.015 | -4.417 | 2.659 | -2.673 | 23.45
CCCc1c(C(=O)N2CCN(Cc3ccccn3)CC2)cnn1C | 3.448 | -3.685 | -11.35 | 8.95 | 4.341
CN1CCN([C@@H]2CCN(C3CCOC3)[C@H]2Cc2cnn(C)c2)CC1 (some centres not stated) | -2.299 | 2.164 | -22.38 | -3.331 | -
CCOC(=O)c1c(NC(=O)C2CCN(C(C)=O)CC2)sc(C)c1CC | 2.513 | 1.614 | -4.645 | -0.942 | -1.597
COCCn1cncc1CN1CCCC(C)(c2ccccc2)C1 (configuration not stated) | 1.299 | 9.185 | -42.81 | 0.8074 | 0.6483
CCc1cccc(OCCN(C)C(=O)c2ccccc2NCC(=O)O)c1 | 3.867 | -2.51 | -36.4 | 4.942 | -4.823
O=C(CCn1ccnc1)N1CC[C@@H](c2ccc3ccccc3c2)[C@H](O)C1 | -4.372 | 2.581 | -30.46 | -2.377 | 4.282
O=C(O)C(F)(F)F.[H][C@@]12CCCO[C@]1([H])[C@H](OCc1cccnc1)CN2C(=O)c1cnccn1 | - | - | - | - | -3.508
[H][C@@]12C[C@H](C(=O)Nc3cccnc3)[C@@]([H])(CN(Cc3ccc(F)cc3)C1)O2 | - | - | - | - | -6.709
COc1ncccc1C1CC(=O)NCc2nc3ccccn3c21 (configuration not stated) | -6.122 | -2.916 | -12.18 | 8.734 | -11.02
CC1CCCCN1CCN(C)C(=O)c1cc(CN2CCC(O)CC2)on1 (configuration not stated) | -0.5236 | 3.521 | -17.04 | 3.915 | 2.133
COCCN1CC(c2cc(O)nc(NC(C)C)n2)CC1=O (configuration not stated) | -2.281 | -4.863 | -7.023 | 2.325 | 7.429
CC(=O)N1[C@H](Cn2cncn2)C[C@@H]2CN(S(C)(=O)=O)CC[C@@H]21 | -0.8368 | -2.237 | -19.4 | 4.574 | -
CC(=O)N1CCC2(CC1)CNc1c(F)cccc12 | 7.778 | - | 10.23 | 3.623 | -
CN1CC(c2ccccc2)CC2(CCN(CC(=O)N(C)C)CC2)C1 (configuration not stated) | -0.8264 | 1.086 | - | 1.19 | -4.841

Some entries from above, unchanged:

- CCc1cccc(OCCN(C)C(=O)c2ccccc2NCC(=O)O)c1 | TcHisRS: 3.867%; MtTrpRS: -2.51%; Pks13 thioesterase: -36.4%; PfKRS1: 4.942%; Toxoplasma: -4.823%
- CC(C)c1nnc2n1CCN(C(=O)c1ccc3cc[nH]c3c1)C2 | TcHisRS: 3.396%; MtTrpRS: 1.774%; Pks13 thioesterase: -6.972%; PfKRS1: 1.28%; Toxoplasma: -3.151%
- [H][C@@]12CS(=O)(=O)C[C@]1([H])N(Cc1cccnc1)CCN2C(=O)C1CCC1 | Toxoplasma: 5.967%
- CC(=O)NCCC1CCCCN1S(=O)(=O)c1cccc(Cl)c1 (configuration not stated) | TcHisRS: 3.015%; MtTrpRS: -4.417%; Pks13 thioesterase: 2.659%; PfKRS1: -2.673%; Toxoplasma: 23.45%